Experimental data from PubChem BioAssay AID2685 (National Center for Advancing Translational Sciences (NCATS), 2010).
The whole screen tested about 320,000 compounds, of which about 2,100 (0.66%) were called active. Inconclusive means that the source gave no clear call. Such entries were picked first, then a sample of the others. Calls follow the shape of the dose curve; as a rule, active = well fitted inhibition curve with a large enough effect in the signal ratio, with a control signal flat (not every such curve was filed as active); inconclusive = small, poorly fitted or top-dose-only effect, or effect the other way, or a change in a side signal; inactive = flat fitted curve, though single readings scatter; the % refers to the signal ratio. Potencies beside an inconclusive call are fits to weak or partial responses and may not hold up.
% is scaled to controls: 0 for no effect and ±100 for the full control effect; potency is read from the fitted curve at half-maximal effect.

Experiment: qHTS Assay for Lipid Storage Modulators in Drosophila S3 Cells
Conditions: BODIPY lipid droplet fluorescence, 18-24 h, cells fed with added oleic acid; lipid storage change, negative = inhibition: at 46.1 µM (top of the series) unless noted
How it was run: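 Drosophila S3 cells got compounds at several concentrations plus oleic acid (400 uM solution). Laser-scanning cytometry with 488 nm excitation read lipid droplets at 500-530 nm and cells at 575-640 nm. Percent activity was relative to 20 uM Triacsin C.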
In the case of `CCOC(=O)C1=C(COC(=O)c2ccccc2[N+](=O)[O-])NC(=O)NC1C` (stereo not given), the lipid storage change, negative = inhibition is reported as “inconclusive”. In the case of `O=C(NC1CC1)C1=C[C@H](c2ccc3c(c2)OCO3)C[C@H](OCc2ccc(CO)cc2)O1`, the “lipid storage change, negative = inhibition” value is reported as inactive: 9.56%. In the case of `CC(=O)Oc1ccc(N2C(=O)C3C4C=CC(CC4)C3C2=O)cc1[N+](=O)[O-]` (stereo not given), the lipid storage change, negative = inhibition is reported as inconclusive: 139%. With `Cc1ccccc1Nc1nc(N)nc(CN(C)c2ccccc2)n1` the Potency was inconclusive: 9.2 µM [activator, single point]. In the case of `CCOC(=O)N1CCN(C(=O)C2CCN(S(=O)(=O)c3cc(Cl)ccc3Cl)CC2)CC1`, the “lipid storage change, negative = inhibition” value is reported as inactive: 9.01%. In the case of `CCCC(=O)Nc1nnc(S(=O)(=O)N(CC(C)C)c2ccccc2)s1`, the Potency is reported as inconclusive: 6.51 µM [activator, single point]. With `COCC(C)n1c(C)cc(C(=O)CN2C(=O)NC3(CCCCC3C)C2=O)c1C` (stereo not given) the lipid storage change, negative = inhibition was inconclusive: -31.7%. With `CC(CC(=O)O)CC(=O)Nc1ccccc1C(=O)O` (stereo not given) the lipid storage change, negative = inhibition was inconclusive: -29.3%. With `C=CCN(CC=C)CCCOc1ccc(Br)cc1Cl` the lipid storage change, negative = inhibition was inconclusive: -40.5% [cytotoxic] [at 0.369 µM]. With `Cc1ccccc1OCCN1C(=O)C(=O)c2cccc(C)c21` the lipid storage change, negative = inhibition was inconclusive: 16.8%. For `Cc1ccccc1-c1nc(CS(=O)(=O)CC(=O)Nc2cc(F)ccc2F)c(C)o1`, the lipid storage change, negative = inhibition was inconclusive: 0.382%. For `CS(=O)(=O)N(CC(=O)NC1CC2CCC1C2)c1cccc(C(F)(F)F)c1` (stereo not given), the Potency was inconclusive: 6.51 µM [falling, single point]. In the case of `CCOC(=O)CC1C(=O)NCCN1S(=O)(=O)c1ccc(OC)cc1` (stereo not given), the lipid storage change, negative = inhibition is reported as inconclusive: -27.4%. For `O=C1CNC(=S)N1CCCn1ccnc1`, the lipid storage change, negative = inhibition was inconclusive: -0.357%. With `Cc1cc(Cl)ccc1OC(C)C(=O)NCCc1ccc2c(c1)OCCO2` (stereo not given) the lipid storage change, negative = inhibition was inconclusive: -62.4%. For `COc1ccc(NC(=O)Nc2ccc3oc(C)nc3c2)cc1`, the lipid storage change, negative = inhibition was inconclusive: 12.9%. For `CN(C)C(=S)SCC(=O)NC(=O)NC(C)(C)C`, the lipid storage change, negative = inhibition was inconclusive: -14.3%. In the case of `O=S(=O)(Nc1ccc(F)cc1)c1ccc(NS(=O)(=O)c2cccs2)cc1`, the Potency is reported as active: 3.66 µM. In the case of `COc1cc(CN2CCN(c3ccc(C)cc3)CC2)cc([N+](=O)[O-])c1O`, the lipid storage change, negative = inhibition is reported as inconclusive: -22.1%. With `COc1cc(OC)c(OC)cc1/C=N/NC(=O)CSc1ccccc1F` the Potency was inconclusive: 7.31 µM [activator, partial curve]. For `CCc1ccc(OCC(=O)N/N=C/c2cc([N+](=O)[O-])ccc2N2CCCCCC2)cc1`, the lipid storage change, negative = inhibition was inconclusive: 17.2%. In the case of `CCOC(=O)CSc1n[nH]c(NC(=O)c2cccc(C)c2)n1`, the lipid storage change, negative = inhibition is reported as inconclusive: 30.1%. With `Fc1cccc(-c2cc3nc4c(c(N5CCOCC5)n3n2)CCCC4)c1` the lipid storage change, negative = inhibition was inconclusive: 11.5%. With `OCCC1CN(Cc2ccc3nsnc3c2)CCN1C1CCCC1` (stereo not given) the lipid storage change, negative = inhibition was inconclusive: -2.03%. For `C/C(=N/NC(=O)c1ccc2c(c1)OCO2)c1ccc(NC(=O)c2ccc(F)cc2)cc1`, the lipid storage change, negative = inhibition was inconclusive: 72.2%. For `COc1ccc(CSc2nnnn2-c2ccc(C(N)=O)cc2)cc1[N+](=O)[O-]`, the lipid storage change, negative = inhibition was inconclusive: 4.33%. For `COC(=O)c1sccc1NC(=O)CCC1CCCC1`, the lipid storage change, negative = inhibition was inconclusive: -2.19%. In the case of `O=c1cc(CN2CCN(c3cccc(Cl)c3)CC2)c2cc(O)c(-c3ccccc3)cc2o1`, the Potency is reported as inconclusive: 6.51 µM [activator, single point]. For `Cc1cc(NN)nc2ccc(Cl)cc12`, the lipid storage change, negative = inhibition was inconclusive: -47%. In the case of `O=C(C(=O)N1CCCC1)c1c(-c2ccccc2)[nH]c2ccccc12`, the lipid storage change, negative = inhibition is reported as inconclusive: 8.22%. With `CCCNC(=S)N1CCN(c2nc(-c3ccc(C)cc3)cs2)CC1` the Potency was inconclusive: 14.6 µM [falling, single point]. For `O=C(c1ccc(Cl)cc1)c1c[nH]c(C(=O)NNc2cccc(Cl)n2)c1`, the lipid storage change, negative = inhibition was inconclusive: -29.3%. With `Cc1cc(OC(C)C)c2c(-c3ccccc3)cc(=O)oc2c1` the lipid storage change, negative = inhibition was inconclusive: 110%. In the case of `O=C(Nc1nncs1)c1cc(-c2ccncc2)nc2ccc(Cl)cc12`, the Potency is reported as inconclusive: 4.61 µM [activator, full curve]. With `COc1cccc(-c2nc(CS(=O)(=O)CC(=O)Nc3cc(C)ccc3C)c(C)o2)c1` the lipid storage change, negative = inhibition was inconclusive: 17.3%. With `COc1cccc(-c2cc(C(=O)Nc3ccncc3)c3ccccc3n2)c1` the Potency was inconclusive: 29.1 µM [falling, single point]. In the case of `COc1ccc(CCNC(=O)COc2ccc(S(=O)(=O)NC3CCCCC3)cc2Cl)cc1OC`, the Potency is reported as active: 8.2 µM. In the case of `COc1ccc(NC(=O)c2nc[nH]c2C(=O)N2CCN(c3ccccc3)CC2)cc1`, the lipid storage change, negative = inhibition is reported as inconclusive: 21.9%. With `CCN(CCNCC(O)COCc1ccc(Cl)cc1)c1cccc(C)c1` (stereo not given) the lipid storage change, negative = inhibition was inconclusive: 12%. In the case of `Cc1ccc(Cn2c(=N)n(CC(O)COc3ccccc3)c3ccccc32)cc1` (stereo not given), the Potency is reported as inconclusive: 29.1 µM [falling, single point]. For `CN(CC(=O)O)S(=O)(=O)c1ccc2c(c1)NC(=O)CC(=O)N2`, the lipid storage change, negative = inhibition was inconclusive: 21.6%. With `Cc1cccc(N(C(=O)c2snc(C(N)=O)c2N)C(C(=O)NC2CCCC2)c2ccco2)c1` (stereo not given) the Potency was inconclusive: 29.1 µM [falling, single point]. For `COc1ccc(S(=O)(=O)N2CCN(Cc3ccc4c(c3)OCO4)CC2)cc1F`, the Potency was inconclusive: 5.17 µM [falling, single point]. For `CCN(CC)S(=O)(=O)c1cc(NC(=O)CNc2cccc(S(=O)(=O)N3CCOCC3)c2)ccc1C`, the Potency was active: 2.06 µM. For `CCC(C(=O)Nc1cc(OC)c(NC(=O)c2ccccc2)cc1OC)c1ccccc1` (stereo not given), the lipid storage change, negative = inhibition was inconclusive: 393%. With `O=C(NCCC(=O)N(Cc1ccco1)Cc1cccs1)c1ccccc1Cl` the lipid storage change, negative = inhibition was inconclusive: 20.2%. With `COc1cc(Cl)ccc1OCc1cc(C(=O)N2CCC(N(C)C)C2)no1` (stereo not given) the lipid storage change, negative = inhibition was inconclusive: -8.04%. In the case of `O=c1c2cc(N3CCOCC3)ccc2[nH]c(=S)n1Cc1ccco1`, the Potency is reported as inconclusive: 3.26 µM [activator, partial curve]. In the case of `Cc1ccc2c(C(=O)CN3CCSCC3)c(C)[nH]c2c1`, the Potency is reported as inconclusive: 0.92 µM [activator, full curve]. In the case of `O=C(CC1S/C(=N/N=C/c2c[nH]c3ccccc23)NC1=O)Nc1ccccc1` (stereo not given), the lipid storage change, negative = inhibition is reported as inconclusive: 29.8%.
